{
  "sequences": {"note": "Chains of the proteins cited; added tags and fusions are not shown. Lines headed by an entry give the natural chain unless they say otherwise; changes in a name come on top.", "UniProt P25963, whole entry, stated change not applied": "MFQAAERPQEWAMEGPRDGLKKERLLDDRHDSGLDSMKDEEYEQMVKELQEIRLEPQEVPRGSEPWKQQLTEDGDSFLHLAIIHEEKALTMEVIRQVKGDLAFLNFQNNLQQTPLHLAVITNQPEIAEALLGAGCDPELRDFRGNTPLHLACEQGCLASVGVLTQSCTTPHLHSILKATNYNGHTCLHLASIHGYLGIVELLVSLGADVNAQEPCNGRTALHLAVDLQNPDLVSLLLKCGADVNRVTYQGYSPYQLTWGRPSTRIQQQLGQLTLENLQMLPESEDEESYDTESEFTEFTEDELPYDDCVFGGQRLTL"},
  "source": "paper doi:10.1101/585497",
  "biological_target": "HA-IκBα (pCMV4-3HA-IκBα) (UniProt P25963)",
  "test": "proximity labelling",
  "note": "No constants are given. Whether binding was seen depends on the method and setting. In cells and extracts the contact can be indirect. Here binding means that the protein was enriched with, or labelled near, the bait; the list need not be complete.",
  "data": [
    {"substance": "Nup153 (endogenous, HEK293T) (from UniProt P49790 1-1475)", "values": [
      {"measurement": "binding", "result": "binds"}
    ]}
  ]
}
